Results as given in article PMC7487413.
Results are given in words; binding and its absence hold for the method and conditions named. In cells and extracts the contact can be indirect. Some entries that bind do so weakly or less than the wild type. For some assays here: Tags and fused reporters may be left off the sequences shown.

By UniProt entry, the sequences of proteins in these tests, tags left out. Residues count along the entry.
UniProt P35555, residues 45-2731: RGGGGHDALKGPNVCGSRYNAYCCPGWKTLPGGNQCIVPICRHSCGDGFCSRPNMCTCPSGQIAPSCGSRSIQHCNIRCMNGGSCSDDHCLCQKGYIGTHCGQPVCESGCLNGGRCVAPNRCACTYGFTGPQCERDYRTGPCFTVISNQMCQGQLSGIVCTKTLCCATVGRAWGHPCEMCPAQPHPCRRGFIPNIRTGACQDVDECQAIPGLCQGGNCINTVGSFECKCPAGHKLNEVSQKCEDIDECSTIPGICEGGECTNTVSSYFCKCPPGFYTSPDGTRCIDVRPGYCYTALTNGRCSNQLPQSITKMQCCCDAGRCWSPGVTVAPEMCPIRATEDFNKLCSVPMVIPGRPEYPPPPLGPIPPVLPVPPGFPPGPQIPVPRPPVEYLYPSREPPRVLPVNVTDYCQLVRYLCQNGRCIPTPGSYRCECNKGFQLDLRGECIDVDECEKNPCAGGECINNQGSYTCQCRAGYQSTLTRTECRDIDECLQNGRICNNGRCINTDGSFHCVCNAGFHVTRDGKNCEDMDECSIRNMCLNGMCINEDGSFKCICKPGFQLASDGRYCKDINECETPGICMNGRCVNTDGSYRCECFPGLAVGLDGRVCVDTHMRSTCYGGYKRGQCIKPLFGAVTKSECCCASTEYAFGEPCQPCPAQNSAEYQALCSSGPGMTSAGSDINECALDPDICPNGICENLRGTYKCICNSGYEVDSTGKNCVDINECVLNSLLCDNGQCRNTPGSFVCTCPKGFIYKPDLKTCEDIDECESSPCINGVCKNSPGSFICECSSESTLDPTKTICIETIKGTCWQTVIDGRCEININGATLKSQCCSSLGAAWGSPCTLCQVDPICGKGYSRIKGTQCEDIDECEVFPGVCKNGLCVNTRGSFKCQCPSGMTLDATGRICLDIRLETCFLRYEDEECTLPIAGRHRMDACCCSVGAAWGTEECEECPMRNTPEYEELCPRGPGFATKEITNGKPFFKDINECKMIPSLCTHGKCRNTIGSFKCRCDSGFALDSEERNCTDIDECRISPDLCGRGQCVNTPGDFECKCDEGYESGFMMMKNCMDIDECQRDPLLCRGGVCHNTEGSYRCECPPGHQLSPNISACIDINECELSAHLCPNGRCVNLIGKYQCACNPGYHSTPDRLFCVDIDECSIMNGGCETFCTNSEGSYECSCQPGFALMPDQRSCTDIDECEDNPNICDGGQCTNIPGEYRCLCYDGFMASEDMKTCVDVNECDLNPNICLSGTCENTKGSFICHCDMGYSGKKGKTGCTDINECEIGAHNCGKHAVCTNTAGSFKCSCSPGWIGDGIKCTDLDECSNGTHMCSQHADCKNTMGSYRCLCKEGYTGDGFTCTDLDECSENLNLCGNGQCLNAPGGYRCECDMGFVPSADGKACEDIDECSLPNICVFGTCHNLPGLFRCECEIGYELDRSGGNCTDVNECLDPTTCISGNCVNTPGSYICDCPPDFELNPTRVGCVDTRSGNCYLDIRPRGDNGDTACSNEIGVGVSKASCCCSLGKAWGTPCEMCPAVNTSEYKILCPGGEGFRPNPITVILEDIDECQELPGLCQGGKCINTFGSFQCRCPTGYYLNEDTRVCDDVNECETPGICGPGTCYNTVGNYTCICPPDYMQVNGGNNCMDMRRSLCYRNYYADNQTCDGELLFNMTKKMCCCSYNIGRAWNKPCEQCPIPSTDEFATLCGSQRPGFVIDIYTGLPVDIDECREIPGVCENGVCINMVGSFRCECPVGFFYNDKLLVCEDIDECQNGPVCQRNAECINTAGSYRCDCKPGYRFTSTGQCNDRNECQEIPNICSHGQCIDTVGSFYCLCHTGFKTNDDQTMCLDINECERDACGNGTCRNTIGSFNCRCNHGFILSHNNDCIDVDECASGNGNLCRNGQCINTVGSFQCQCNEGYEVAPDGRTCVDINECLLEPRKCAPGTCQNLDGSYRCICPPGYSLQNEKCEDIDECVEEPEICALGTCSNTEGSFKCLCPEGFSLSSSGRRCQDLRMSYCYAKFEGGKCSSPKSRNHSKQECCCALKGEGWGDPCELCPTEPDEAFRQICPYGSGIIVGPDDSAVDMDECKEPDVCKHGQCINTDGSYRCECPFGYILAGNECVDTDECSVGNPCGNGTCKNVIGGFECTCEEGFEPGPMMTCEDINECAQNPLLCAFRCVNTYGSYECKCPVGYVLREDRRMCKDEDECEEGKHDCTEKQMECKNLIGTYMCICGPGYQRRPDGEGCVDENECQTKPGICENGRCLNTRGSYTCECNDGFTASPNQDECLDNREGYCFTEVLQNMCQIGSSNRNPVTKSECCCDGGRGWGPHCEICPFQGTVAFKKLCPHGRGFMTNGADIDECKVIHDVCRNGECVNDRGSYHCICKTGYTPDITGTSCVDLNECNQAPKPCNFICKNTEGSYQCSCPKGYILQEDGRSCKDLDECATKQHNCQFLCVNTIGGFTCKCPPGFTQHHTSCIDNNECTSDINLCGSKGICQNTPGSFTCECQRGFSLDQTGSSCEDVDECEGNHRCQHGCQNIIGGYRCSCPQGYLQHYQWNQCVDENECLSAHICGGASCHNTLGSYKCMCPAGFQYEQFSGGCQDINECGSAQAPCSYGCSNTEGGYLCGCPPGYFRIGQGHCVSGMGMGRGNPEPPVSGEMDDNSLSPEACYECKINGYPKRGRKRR

Experiments:
[1] = molecular target: T1, Flag-tagged wild-type (WT) FBXO2 (F-box only protein 2) (human) (UniProt Q9UK22); assay: co-IP; HEK-293T cells co-transfected with Flag-FBXO2 and Myc-FBN1 for 48 h, 20 uM MG132 for 8 h; lysates precipitated with anti-Flag or anti-Myc beads, western blot
T1 sequence: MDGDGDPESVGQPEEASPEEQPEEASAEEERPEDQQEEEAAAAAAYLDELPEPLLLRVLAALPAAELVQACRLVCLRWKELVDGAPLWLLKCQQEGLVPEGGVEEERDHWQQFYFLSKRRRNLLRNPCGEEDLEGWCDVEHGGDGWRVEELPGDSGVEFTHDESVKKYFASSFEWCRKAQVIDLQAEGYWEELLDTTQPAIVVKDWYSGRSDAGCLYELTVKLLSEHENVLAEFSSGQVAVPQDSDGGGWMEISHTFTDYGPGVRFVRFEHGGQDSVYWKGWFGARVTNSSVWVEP

[2] = molecular target: T2, FBXO2 (F-box only protein 2), endogenous (human (endogenous in RL95-2 and Ishikawa)) (UniProt Q9UK22); assay: co-IP; endogenous proteins; RL95-2 and Ishikawa cell lysates precipitated with anti-FBXO2 or anti-FBN1 and protein A/G agarose, western blot
T2 sequence: T1 sequence

Row | binding [1] | binding [2] | Substance
1 | binds |  | Myc-tagged FBN1 (fibrillin1) (from UniProt P35555 45-2731)
2 |  | binds | FBN1 (fibrillin1), endogenous (from UniProt P35555 45-2731)
